US20240207414A1, “DISULFIDE-BASED PRODRUG COMPOUND” (Ludwig-Maximilians-Universitat Munchen, priority 2021, published 2024)
Some of these results come from one statement about several compounds together.

Test system: A549 cells
Assay: Cellular reduction assay P12-P16 (FIG. 6)
Assay type: cell-based, human
Settings: 10 μM or 40 μM, 1% vol DMSO, cells under ordinary conditions
Experimental: Assay Conditions: A549 cells were cultured under standard conditions (Gao, L. et al. Cell Chemical Biology 2021, 28, 1-14. https://doi.org/10.1016/j.chembiol.2020.11.007), left to adhere for 24 h, then compounds were added to 10 μM or 40 μM with 1% vol DMSO. Fluorescence timecourse measurements were acquired as in the chemoreductant assay, with all conditions in triplicates.
Experimental Results and Discussion: F(t) is the raw fluorescence intensity signal increase in arbitrary units with the same detection settings the probes releasing the same cargo. […] This trend is irrespective of the applied concentration in cells and cellular increase is constant over time. This indicates, that P13-P16 are activated more selectively by specific enzymatic cascades (as e.g. Trx/TrxR), whereas P12 may be activated more unspecifically. Thus, compounds of the invention either have the possibility of being useful by giving selective cargo release in pathologically growing cells or cells under abnormal conditions (P13-P16), or offer novel opportunities of cellular delivery of appended cargoes with optimal response kinetics (P12).

SMILES: COc1ccc2c(c1)Oc1cc(OC(=O)N3CCN(C(C)=O)[C@@H]4CSSC[C@@H]43)ccc1C21OC(=O)c2ccccc21 (mixture of isomers) [Compound P15, 3′-methoxy-3-oxo-3H-spiro[isobenzofuran-1,9′-xanthen]-6′-yl-cis-4-acetylhexahydro-[1,2]dithiino[4,5-b]pyrazine-1(2H)-carboxylate]
- cargo release / activation inside cells (raw fluorescence F(t)): not activated inside cells under ordinary conditions to the same extent and as fast as P12
